# In article PMC7819943, “Rice protein-binding microarrays: a tool to detect cis-acting elements near promoter regions in rice”:
# Some of the results follow.
# Target: T1, OsSMF1 (Oryza sativa, UniProt Q6ZLB0 1-436)
# T1 sequence: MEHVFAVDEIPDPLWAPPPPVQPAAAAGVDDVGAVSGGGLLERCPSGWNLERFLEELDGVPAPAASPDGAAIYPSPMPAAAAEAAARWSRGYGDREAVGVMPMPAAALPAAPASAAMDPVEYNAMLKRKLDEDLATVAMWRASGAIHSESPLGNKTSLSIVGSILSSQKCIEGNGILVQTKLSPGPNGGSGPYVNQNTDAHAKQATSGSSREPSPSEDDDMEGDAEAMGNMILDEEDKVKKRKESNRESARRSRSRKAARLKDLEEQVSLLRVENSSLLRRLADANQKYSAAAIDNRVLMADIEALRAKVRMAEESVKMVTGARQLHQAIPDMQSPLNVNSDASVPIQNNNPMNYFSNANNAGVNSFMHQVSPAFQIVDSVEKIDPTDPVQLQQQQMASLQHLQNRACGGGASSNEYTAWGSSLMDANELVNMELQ
# Experiment: protein-binding microarray (RPBM); PBS, 2% BSA, 51.3 ng/ul salmon testes DNA, 50 uM zinc acetate, 200 nM TF, 25 C, 1 h; high values mean tight binding
# Settings: protein: recombinant; tags: N-terminal polyhistidine and DsRed monomer fusion (pET32a); chain copies: 2; label: CyDye5-dUTP incorporated in the synthesized complementary strand; 3' TTTTT single-stranded linker to array surface; dsDNA, one strand shown
# Summary of the method: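 The binding signal for each feature is its fluorescence intensity in arbitrary units. An Axon 4000B scanner was used to read a custom Agilent array that had been made double-stranded with Cy5-dUTP primer extension, blocked with 2% BSA, incubated at 25 °C for 1 h with 200 nM protein in PBS, 2% BSA, salmon testes DNA and 50 µM zinc acetate, and washed. The protein was an N-terminal polyhistidine–DsRed transcription factor fusion from E. coli BL21-CodonPlus, purified on Ni–NTA.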
row,Sequence,binding signal
1,GCAAAGAGCCTGCTGAAGACAATGACGATGGACCAGGTATCGGAGTCACCTAGTGCAG,3390 fluorescence intensity (a.u.)
2,CTCACATATCTGGTGGGCTGGATCCACAGTAAGAAACAGTCGGAGTCACCTAGTGCAG,32500 fluorescence intensity (a.u.)
3,GAAAATAGATGATTTTCGTTAGCGGTCCCACATCCGCATGCGGAGTCACCTAGTGCAG,3990 fluorescence intensity (a.u.)
4,TTTCTAGTATTTTGGAATGTCATCCGTGTTTGAGTCGGATCGGAGTCACCTAGTGCAG,3250 fluorescence intensity (a.u.)
5,ATCTCATCACAACCGCGCGAGCGAGCAGTCACCTGCAGCGCGGAGTCACCTAGTGCAG,3340 fluorescence intensity (a.u.)
6,GTGCTACAACGTACGCCACGACTTTGCGTACGTCGTGCCACGGAGTCACCTAGTGCAG,4460 fluorescence intensity (a.u.)
7,AGCCGGAGAGGGGAGATGTTGGCGGCGCACGGGGCAGTTTCGGAGTCACCTAGTGCAG,3570 fluorescence intensity (a.u.)
8,CACCGCCACCTCCGCCTCCACTACCGCCACCGCCACCGCCCGGAGTCACCTAGTGCAG,3990 fluorescence intensity (a.u.)
9,GGGCTGCCAATTTGCCAAATCATATTCTCACGCCCTACCTCGGAGTCACCTAGTGCAG,3590 fluorescence intensity (a.u.)
10,TTAAGTTCTTTTCATCGACTCATTTCGTGCTTTTGTATTTCGGAGTCACCTAGTGCAG,28900 fluorescence intensity (a.u.)
11,AGTACACGATCCTACGAAATCTTAGATGGTATCCCGATTCCGGAGTCACCTAGTGCAG,3990 fluorescence intensity (a.u.)
12,ATTATACTCCGGTTTTGGCTGACGTGGCAACTATGTGGCTCGGAGTCACCTAGTGCAG,14200 fluorescence intensity (a.u.)
13,TTGTAGAAGTTGAATTTGGTTTTACATATTTGTGGAGTGACGGAGTCACCTAGTGCAG,61600 fluorescence intensity (a.u.)
14,TCTCCATCGCCATCCACCGCCGTCACCATCACAATAGAGACGGAGTCACCTAGTGCAG,4160 fluorescence intensity (a.u.)
15,TATTCCTCCAGGCTTCCAGCGTGACCTCGAGTCATCAGTTCGGAGTCACCTAGTGCAG,4580 fluorescence intensity (a.u.)
16,TATATATAATTCATCACTGATGACAGCTATTCACAATCTTCGGAGTCACCTAGTGCAG,3320 fluorescence intensity (a.u.)
17,GTTGGTGTCATAACGTATCTATCGGTGTCATAGTATGCTACGGAGTCACCTAGTGCAG,3560 fluorescence intensity (a.u.)
18,CACACTGAGTCAGCTGCCACGTCGGATAAAACCGGAGTCACGGAGTCACCTAGTGCAG,10500 fluorescence intensity (a.u.)
19,GGGATAATTCCCGGAGGAAGTTATTTTATCTAATATTAATCGGAGTCACCTAGTGCAG,30800 fluorescence intensity (a.u.)
20,TGGGTGGACGCATACGTCACAGTCTAGTCAGCCAAAACAACGGAGTCACCTAGTGCAG,8410 fluorescence intensity (a.u.)
21,CAGGTGCGACACGTCGTTCAGGTGGCTGTCGTCCGCCGTGCGGAGTCACCTAGTGCAG,8400 fluorescence intensity (a.u.)

# Part of the list above, set out differently:
row | Sequence | binding signal
1 | GCAAAGAGCCTGCTGAAGACAATGACGATGGACCAGGTATCGGAGTCACCTAGTGCAG | 3390 fluorescence intensity (a.u.)
6 | GTGCTACAACGTACGCCACGACTTTGCGTACGTCGTGCCACGGAGTCACCTAGTGCAG | 4460 fluorescence intensity (a.u.)

# Remaining list, next part.

row,Sequence,binding signal
1,GCGCGTTGCTGCTGACTCCGGAGCAAAATCGAGCGAGCGCCGGAGTCACCTAGTGCAG,3360 fluorescence intensity (a.u.)
2,TTCAGTCTTGTCGTCTGAGTTGCCCTGCCATGTGGGCGTCCGGAGTCACCTAGTGCAG,3260 fluorescence intensity (a.u.)
3,CTCGCTGTCCCCGCACGCTACCGCCCGAAGGGGAAGAAGGCGGAGTCACCTAGTGCAG,3320 fluorescence intensity (a.u.)
4,TTGCTAAGCTAGCACTAAAATCCAGCGTCCACGTCGAGATCGGAGTCACCTAGTGCAG,6050 fluorescence intensity (a.u.)
5,ATCCATAACTATGTAACGTCATAGCCACCCAGCCTCGCTTCGGAGTCACCTAGTGCAG,5580 fluorescence intensity (a.u.)
6,CCGGTCGCTTTCTTCGTCACGTTACCGCGGGAATCATCGTCGGAGTCACCTAGTGCAG,5310 fluorescence intensity (a.u.)
7,CGGATCAGCCGGCGCTTGCGCGTGCGTGCGCATGATATGTCGGAGTCACCTAGTGCAG,3440 fluorescence intensity (a.u.)
8,GAAATGGAGGGAAATGGAGTACTATAGTACATTGCAACGACGGAGTCACCTAGTGCAG,3610 fluorescence intensity (a.u.)
9,GGAGAGCTGACTTGGCGGGGAGGGCGTGTGTTTCGCGTGGCGGAGTCACCTAGTGCAG,6860 fluorescence intensity (a.u.)
10,ATCGCCACGTCCACGCCTCGCTCGCGTTTTATCCGTTTCGCGGAGTCACCTAGTGCAG,10200 fluorescence intensity (a.u.)
11,TTTTAGCCTAATTACGTCATGATTAGCCATAAATGCTACACGGAGTCACCTAGTGCAG,7590 fluorescence intensity (a.u.)
12,GTATTGCTGCTGTGATGGAACAAGCTCAGCAGGGTGACATCGGAGTCACCTAGTGCAG,3290 fluorescence intensity (a.u.)
13,TTAAATGTACCTAATATATTATGTCAGACATATGGATTTCCGGAGTCACCTAGTGCAG,3460 fluorescence intensity (a.u.)
14,CCACTGCCTAGTCGTCACATGTGGCCGAACCAGCCTTCGTCGGAGTCACCTAGTGCAG,5370 fluorescence intensity (a.u.)
15,CGGGCGGCGATCTCCATCGCAGCGGAGGGGAGGGGATCCTCGGAGTCACCTAGTGCAG,3320 fluorescence intensity (a.u.)
16,AGAAATTCCTGCGTCTGCGTGCTTGTAGATTTGTAATTTGCGGAGTCACCTAGTGCAG,3280 fluorescence intensity (a.u.)
17,TATATCTATATGCCATATCATCTGTCTATCCTTTGTAAAGCGGAGTCACCTAGTGCAG,3630 fluorescence intensity (a.u.)
18,ACACACCCCACCATAGTTTACGAAGCCGGATCACGTGGAACGGAGTCACCTAGTGCAG,3240 fluorescence intensity (a.u.)
19,GCCGGCGGCGGTGGCTCCGGGGATGTGATCTGGCAGAGCTCGGAGTCACCTAGTGCAG,33100 fluorescence intensity (a.u.)
20,ATCACCGTCACTTTTACTCTGTTAGATACCGTTAATTTTGCGGAGTCACCTAGTGCAG,4250 fluorescence intensity (a.u.)
21,GGAGGCTAAGCGGCGGGCCCCACCAGCGCCGCCTGCCTATCGGAGTCACCTAGTGCAG,16100 fluorescence intensity (a.u.)
